Data published in article PMC7431843.
These are yes or no findings as the source states them, for the method shown. In cells and extracts the contact can be indirect. Binding can be weak; no strength is given.

Assays:
Assay in all cases: co-IP; reciprocal co-immunoprecipitation after coexpression in HEK293T cells (24 h); TNTE lysis buffer (Tris-HCl pH 7.5, 120 mM NaCl, 1% Triton X-100, 1 mM EDTA); anti-FLAG M2 affinity gel, or rabbit polyclonal mCherry, RFP or GFP antibodies with Protein G Sepharose; beads washed 6x with lysis buffer supplemented with 500 mM NaCl; immunoblot
[1] = target: Plk4 kinase domain (isolated, deletion construct) (human)
[2] = target: FLAG-Plk4 K41M (kinase-dead) (human)
[3] = target: Plk4 polobox domains PB-1/PB-2 (deletion construct) (human)

binding [1]: binds
binding [2]: binds
binding [3]: binds
B1: RFP-FAM46C (protein, UniProt Q5VWP2 1-391)
chain: MAEESSCTRDCMSFSVLNWDQVSRLHEVLTEVVPIHGRGNFPTLEITLKDIVQTVRSRLEEAGIKVHDVRLNGSAAGHVLVKDNGLGCKDLDLIFHVALPTEAEFQLVRDVVLCSLLNFLPEGVNKLKISPVTLKEAYVQKLVKVCTDTDRWSLISLSNKNGKNVELKFVDSIRRQFEFSVDSFQIILDSLLFFYDCSNNPISEHFHPTVIGESMYGDFEEAFDHLQNRLIATKNPEEIRGGGLLKYSNLLVRDFRPTDQEEIKTLERYMCSRFFIDFPDILEQQRKLETYLQNHFAEEERSKYDYLMILRRVVNESTVCLMGHERRQTLNLISLLALRVLAEQNIIPSATNVTCYYQPAPYVSDGNFSNYYVAHPPVTYSQPYPTWLPCN
